Results reported in publication PMC2888229.
The exact form of at least one protein or probe is not confirmed. Results from cells or extracts need not show a direct contact. For part of these data: At least one verdict was read from the data and is not stated in words by the source.

Amino acid sequences for entries named in this document (tags omitted).
UniProt P05412, whole entry: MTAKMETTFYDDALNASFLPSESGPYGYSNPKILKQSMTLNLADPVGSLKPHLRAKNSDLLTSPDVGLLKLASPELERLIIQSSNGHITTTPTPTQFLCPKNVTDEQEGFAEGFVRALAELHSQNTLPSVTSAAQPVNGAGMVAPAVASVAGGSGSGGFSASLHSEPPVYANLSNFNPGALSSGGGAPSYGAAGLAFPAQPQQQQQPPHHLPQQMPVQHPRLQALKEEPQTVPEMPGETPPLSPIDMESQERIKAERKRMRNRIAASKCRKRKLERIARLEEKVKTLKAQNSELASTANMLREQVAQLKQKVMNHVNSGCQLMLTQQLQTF
UniProt Q15796, whole entry: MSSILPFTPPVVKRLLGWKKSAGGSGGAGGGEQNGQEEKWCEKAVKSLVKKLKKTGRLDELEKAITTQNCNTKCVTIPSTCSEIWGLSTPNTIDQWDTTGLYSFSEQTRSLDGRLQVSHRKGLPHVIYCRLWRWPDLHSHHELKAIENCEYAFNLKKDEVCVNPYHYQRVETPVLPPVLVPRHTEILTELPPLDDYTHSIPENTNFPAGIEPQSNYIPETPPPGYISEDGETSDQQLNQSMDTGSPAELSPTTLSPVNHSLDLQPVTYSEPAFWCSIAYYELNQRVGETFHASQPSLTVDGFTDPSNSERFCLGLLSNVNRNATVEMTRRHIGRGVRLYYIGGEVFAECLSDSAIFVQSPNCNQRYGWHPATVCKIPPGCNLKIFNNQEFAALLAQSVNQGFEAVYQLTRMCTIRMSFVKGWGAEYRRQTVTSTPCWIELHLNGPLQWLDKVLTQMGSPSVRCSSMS

What was measured:
[1] = target: c-Jun (Homo sapiens) (UniProt P05412); assay: EMSA supershift; conditions: EMSA: 5 ug nuclear extract, nuclear extraction buffer (composition not given) with 130 ng/uL poly dIdC, 0.7 mg/mL BSA, 15% glycerol, 30 min room temperature, 4% gel, protein in an extract, label: 32P
[2] = target: phospho-Smad2 (Homo sapiens) (UniProt Q15796); assay: DNA pull-down, immunoblot; conditions: pull-down: 1 ug DNA, 300 ug extract, 0.2 mg/mL salmon DNA, 30 min RT, then beads with 150 mM NaCl 3 h 4 C, pH not stated, protein in an extract
[3] = target: c-Jun (Homo sapiens) (UniProt P05412); assay: DNA pull-down, immunoblot; conditions: nuclear extract from bortezomib-treated fibroblasts, marked increase vs untreated; pull-down: 1 ug DNA, 300 ug extract, 0.2 mg/mL salmon DNA, 30 min RT, then beads with 150 mM NaCl 3 h 4 C; pH not stated; protein in an extract

“CTAGTGATGAGTCAGCCGGATC (double strand) [MMP-1 AP-1 EMSA probe]”: binds ([1]; nuclear extract from TNF-alpha-treated fibroblasts (10 ng/mL, 1 h)); binds ([1]; nuclear extract from bortezomib-treated fibroblasts (1 uM, 16 h)); binds ([1]; nuclear extract from untreated fibroblasts, anti-c-Jun supershift).

“GAAAGGGCGGGGGAGGGCGGGAGGATGCGGAGGGCGGAG (double strand) [Biotin-COL1A2 pull-down probe]”: binds ([2]; nuclear extract from TGF-beta + bortezomib-treated fibroblasts, enhanced vs TGF-beta alone); binds ([2]; nuclear extract from TGF-beta-treated fibroblasts (5 ng/mL), substantial increase vs untreated).

“GATCGAGAGGATGTTATAAAGCATGAGTCAG (double strand) [Biotin-MMP-1 pull-down probe]”: binds [3].
